The list shows a part of the results.
Columns and labels:
Experiment in all cases: log2 fold change, soluble protein after heating vs DMSO (PISA); higher = thermal stabilisation; K562 lysate, 10 uM; active = over 0.2 and 3.5 SD of the protein, either way, in both replicates (recomputed)
[1] = compound: CS(=O)(=O)CCNCc1ccc(-c2ccc3ncnc(Nc4ccc(OCc5cccc(F)c5)c(Cl)c4)c3c2)o1 [lapatinib]
Outline: (§1)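 Soluble protein was defined as the supernatant remaining after 21,000xg for 90 min, following pooling of heated aliquots and adjustment to 0.5% NP-40 at 4°C. Before that, crude K562 extract at 1 mg/mL protein in PBS pH 7.4 with 1 mM MgCl2 was treated with 10 μM compound for 30 min and heated for 3 min across 48°C-58°C. Quantification used TMTpro 16plex LC-MS/MS with channel sums equalised, and values are log-two fold changes in thermal stability relative to solvent controls from duplicates.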

The chains behind the UniProt entries cited, without tags or fusion partners. Where a name states a change or a piece, a line headed by the entry shows the natural chain unless it says otherwise.
UniProt Q16854: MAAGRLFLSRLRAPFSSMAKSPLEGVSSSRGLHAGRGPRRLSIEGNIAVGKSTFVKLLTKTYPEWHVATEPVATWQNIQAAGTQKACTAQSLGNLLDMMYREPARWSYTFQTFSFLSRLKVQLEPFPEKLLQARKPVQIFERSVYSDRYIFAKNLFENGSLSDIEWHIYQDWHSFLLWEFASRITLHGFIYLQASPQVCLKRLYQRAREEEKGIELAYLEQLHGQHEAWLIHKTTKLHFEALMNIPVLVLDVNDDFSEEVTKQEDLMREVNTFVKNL
UniProt Q9Y222: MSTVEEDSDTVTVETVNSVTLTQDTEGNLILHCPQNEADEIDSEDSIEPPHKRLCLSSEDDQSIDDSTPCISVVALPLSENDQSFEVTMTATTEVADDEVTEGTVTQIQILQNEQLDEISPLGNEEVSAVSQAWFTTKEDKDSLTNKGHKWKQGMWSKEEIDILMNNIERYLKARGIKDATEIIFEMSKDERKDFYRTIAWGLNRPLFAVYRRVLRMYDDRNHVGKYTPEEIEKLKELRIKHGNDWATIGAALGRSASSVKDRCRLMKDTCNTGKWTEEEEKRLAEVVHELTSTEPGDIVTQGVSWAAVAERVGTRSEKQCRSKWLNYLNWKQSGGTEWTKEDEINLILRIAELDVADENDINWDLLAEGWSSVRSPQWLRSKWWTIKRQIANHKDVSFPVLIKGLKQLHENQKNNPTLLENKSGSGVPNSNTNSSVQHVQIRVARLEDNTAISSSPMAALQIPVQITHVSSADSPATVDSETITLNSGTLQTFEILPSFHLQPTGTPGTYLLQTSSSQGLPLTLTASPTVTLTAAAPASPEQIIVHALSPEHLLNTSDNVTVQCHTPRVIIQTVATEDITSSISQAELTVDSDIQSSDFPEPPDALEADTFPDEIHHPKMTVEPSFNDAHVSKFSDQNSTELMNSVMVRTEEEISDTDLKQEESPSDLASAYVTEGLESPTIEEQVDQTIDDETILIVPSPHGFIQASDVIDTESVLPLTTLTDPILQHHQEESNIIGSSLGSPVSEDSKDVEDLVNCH
UniProt Q08495: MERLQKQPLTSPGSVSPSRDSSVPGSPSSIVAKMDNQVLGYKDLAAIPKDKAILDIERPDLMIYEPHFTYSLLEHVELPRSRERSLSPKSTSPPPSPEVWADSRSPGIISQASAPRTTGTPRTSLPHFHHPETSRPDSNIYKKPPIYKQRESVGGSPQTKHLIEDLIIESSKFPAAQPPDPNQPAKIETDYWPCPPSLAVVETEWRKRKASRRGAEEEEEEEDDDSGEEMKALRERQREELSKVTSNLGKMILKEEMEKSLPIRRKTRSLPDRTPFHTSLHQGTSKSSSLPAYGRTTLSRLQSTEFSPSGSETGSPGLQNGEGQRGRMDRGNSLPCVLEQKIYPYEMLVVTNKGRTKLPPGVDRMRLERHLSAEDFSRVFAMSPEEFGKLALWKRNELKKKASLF
UniProt Q9H3Z4: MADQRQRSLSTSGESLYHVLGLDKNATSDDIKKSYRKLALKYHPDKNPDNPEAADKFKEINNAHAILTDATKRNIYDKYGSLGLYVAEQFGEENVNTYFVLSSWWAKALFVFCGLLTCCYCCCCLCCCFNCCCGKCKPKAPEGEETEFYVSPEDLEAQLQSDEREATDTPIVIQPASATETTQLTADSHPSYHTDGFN
UniProt Q9NXW2: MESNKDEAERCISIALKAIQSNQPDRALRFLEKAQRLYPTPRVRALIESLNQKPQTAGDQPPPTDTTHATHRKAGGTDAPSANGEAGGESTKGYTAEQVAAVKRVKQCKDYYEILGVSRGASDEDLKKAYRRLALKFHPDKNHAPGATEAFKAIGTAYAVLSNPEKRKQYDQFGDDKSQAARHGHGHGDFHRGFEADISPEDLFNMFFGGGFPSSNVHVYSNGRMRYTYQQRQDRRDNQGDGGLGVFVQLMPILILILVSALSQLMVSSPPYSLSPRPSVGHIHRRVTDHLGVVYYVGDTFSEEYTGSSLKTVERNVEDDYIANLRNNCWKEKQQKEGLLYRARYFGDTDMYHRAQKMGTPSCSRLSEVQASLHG
UniProt Q13217: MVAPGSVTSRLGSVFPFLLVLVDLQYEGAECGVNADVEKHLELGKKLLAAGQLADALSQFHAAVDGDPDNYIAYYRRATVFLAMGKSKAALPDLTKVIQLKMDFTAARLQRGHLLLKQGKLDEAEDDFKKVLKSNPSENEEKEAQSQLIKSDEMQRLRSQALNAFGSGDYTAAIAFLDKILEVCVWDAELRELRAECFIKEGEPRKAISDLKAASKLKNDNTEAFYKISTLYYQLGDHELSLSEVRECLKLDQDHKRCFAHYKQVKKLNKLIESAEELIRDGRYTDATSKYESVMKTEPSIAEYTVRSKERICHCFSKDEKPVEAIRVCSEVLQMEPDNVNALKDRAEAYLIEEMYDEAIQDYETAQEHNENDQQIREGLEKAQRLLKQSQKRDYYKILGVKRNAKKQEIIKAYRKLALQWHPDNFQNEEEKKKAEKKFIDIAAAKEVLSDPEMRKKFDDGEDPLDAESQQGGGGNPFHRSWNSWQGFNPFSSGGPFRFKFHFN
UniProt Q8WXX5: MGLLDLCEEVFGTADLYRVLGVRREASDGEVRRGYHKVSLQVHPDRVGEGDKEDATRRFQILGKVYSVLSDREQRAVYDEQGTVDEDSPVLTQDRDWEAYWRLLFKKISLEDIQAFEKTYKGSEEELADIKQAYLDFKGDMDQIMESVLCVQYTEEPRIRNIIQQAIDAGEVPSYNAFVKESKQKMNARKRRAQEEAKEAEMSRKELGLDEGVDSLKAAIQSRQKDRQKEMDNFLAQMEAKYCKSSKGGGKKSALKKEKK
UniProt Q9UKB3: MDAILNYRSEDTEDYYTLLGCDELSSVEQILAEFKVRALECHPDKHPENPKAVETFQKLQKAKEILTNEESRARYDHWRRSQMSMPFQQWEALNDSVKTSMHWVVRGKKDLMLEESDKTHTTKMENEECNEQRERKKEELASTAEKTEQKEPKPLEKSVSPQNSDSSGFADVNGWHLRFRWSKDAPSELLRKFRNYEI

[2] = compound: CS(=O)(=O)N1CCN(Cc2cc3nc(-c4cccc5[nH]ncc45)nc(N4CCOCC4)c3s2)CC1 [pictilisib]
Outline: as §1

[3] = compound: C[C@@H](Oc1cc(-c2cnn(C3CCNCC3)c2)cnc1N)c1c(Cl)ccc(F)c1Cl [crizotinib]
Outline: as §1

[4] = compound: C[C@H](C1=CC=C(C=C1)C(=O)NC2=C3C=CNC3=NC=C2)N
Outline: as §1

[5] = compound: C[C@H](Nc1ncnc2nc[nH]c12)c1cc2cccc(Cl)c2c(=O)n1-c1ccccc1 [duvelisib]
Outline: as §1

[6] = compound: Cc1cc(Nc2cc(CN3CCOCC3)c3nc(C)c(Cc4ccc(Cl)cc4F)n3n2)n[nH]1 [gandotinib]
Outline: as §1

[7] = compound: Cc1cc(Nc2cc(N3CCN(C)CC3)nc(Sc3ccc(NC(=O)C4CC4)cc3)n2)n[nH]1 [tozasertib]
Outline: as §1

[8] = compound: Cc1ccc(-n2nc(C(C)(C)C)cc2NC(=O)Nc2ccc(OCCN3CCOCC3)c3ccccc23)cc1 [doramapimod]
Outline: as §1

[9] = compound: Cc1ccc(NC(=O)c2ccc(CN3CC[C@H](N(C)C)C3)c(C(F)(F)F)c2)cc1Nc1nccc(-c2cncnc2)n1 [bafetinib]
Outline: as §1

[10] = compound: Cc1cccc(CC(=O)N2CCc3c2ccc(-c2cn(C)c4ncnc(N)c24)c3F)n1
Outline: as §1

[11] = compound: Cc1cn(-c2cc(NC(=O)c3ccc(C)c(Nc4nccc(-c5cccnc5)n4)c3)cc(C(F)(F)F)c2)cn1 [nilotinib]
Outline: as §1

[12] = compound: Cc1nc(Nc2n[nH]c3c2CN(C(=O)N[C@H](CN(C)C)c2ccccc2)C3(C)C)c2sccc2n1
Outline: as §1

[13] = compound: Cc1nc(Nc2ncc(C(=O)Nc3c(C)cccc3Cl)s2)cc(N2CCN(CCO)CC2)n1 [dasatinib]
Outline: as §1

[14] = compound: Cc1ncc(-c2ccnc(Nc3ccc(S(C)(=O)=O)cc3)n2)n1C(C)C
Outline: as §1

[15] = compound: Cn1cc(-c2ccc3c(c2)CCN3C(=O)Cc2cccc(C(F)(F)F)c2)c2c(N)ncnc21
Outline: as §1

[16] = compound: Cn1cc(CNCC2CCN(c3ncc(C(=O)NO)cn3)CC2)c2ccccc21 [quisinostat]
Outline: as §1

[17] = compound: Cn1cncc1[C@@](N)(c1ccc(Cl)cc1)c1ccc2c(c1)c(-c1cccc(Cl)c1)cc(=O)n2C [tipifarnib]
Outline: as §1

[18] = compound: NC(=O)Nc1cc(-c2cccc(F)c2)sc1C(=O)N[C@H]1CCCNC1
Outline: as §1

[19] = compound: NC(=O)c1cnc(N[C@@H]2CCCC[C@@H]2N)nc1Nc1cccc(-n2nccn2)c1
Outline: as §1

[20] = compound: NC1(c2ccc(-c3nc4ccn5c(=O)[nH]nc5c4cc3-c3ccccc3)cc2)CCC1
Outline: as §1

Measured: log2 fold change

DGUOK (UniProt Q16854)
inactive: [1] 0.014 | [2] -0.012 | [3] 0.057 | [4] -0.022 | [5] -0.002 | [6] 0.036 | [7] 0.007 | [8] -0.068 | [9] 0.017 | [10] -0.021 | [11] 0.019 | [12] 0.01 | [13] -0.018 | [14] 0.043 | [15] -0.042 | [16] 0.024 | [17] -0.016 | [18] -0.037 | [19] -0.018 | [20] -0.027

DMTF1 (UniProt Q9Y222)
inactive: [1] -0.118 | [2] -0.052 | [3] 0.012 | [4] -0.044 | [5] 0.134 | [6] 0.092 | [7] -0.021 | [8] 0.07 | [9] 0.036 | [10] 0.132 | [11] 0.049 | [12] 0.028 | [13] 0.04 | [14] 0.039 | [15] -0.061 | [16] -0.127 | [17] 0.055 | [18] 0.004 | [19] -0.006 | [20] 0.045

DMTN (UniProt Q08495)
inactive: [1] -0.017 | [2] -0.012 | [3] 0.048 | [4] 0.02 | [5] 0.002 | [6] 0.028 | [7] 0.032 | [8] 0.001 | [9] -0.009 | [10] -0.02 | [11] 0.003 | [12] 0.014 | [13] 0.031 | [14] 0.001 | [15] 0.017 | [16] 0.029 | [17] 0.004 | [18] -0.015 | [19] -0.002 | [20] -0.01

DNAJC5 (UniProt Q9H3Z4)
inactive: [1] -0.021 | [2] 0.075 | [3] 0.007 | [5] -0.041 | [6] 0.161 | [7] -0.054 | [8] 0.023 | [9] -0.144 | [11] -0.136 | [12] -0.043 | [13] -0.002 | [14] 0.008 | [15] -0.029 | [16] -0.05 | [17] 0.043 | [18] -0.045 | [19] 0.062 | [20] 0.024
active: [4] -0.377 | [10] 0.334

DNAJB12 (UniProt Q9NXW2)
inactive: [1] -0.008 | [2] -0.059 | [3] -0.005 | [4] 0.103 | [5] -0.014 | [6] -0.095 | [7] -0.031 | [8] -0.02 | [9] -0.019 | [10] -0.025 | [11] -0.094 | [12] 0.095 | [13] 0.044 | [14] 0.01 | [15] -0.105 | [16] -0.044 | [17] -0.018 | [18] 0.012 | [19] 0.035 | [20] -0.021

DNAJC3 (UniProt Q13217)
inactive: [1] 0.01 | [2] -0.015 | [3] 0.047 | [4] 0.001 | [5] 0.046 | [6] 0.012 | [7] 0.014 | [8] -0.064 | [9] -0.002 | [10] -0.014 | [11] 0.029 | [12] -0.019 | [13] 0.074 | [14] 0.008 | [15] 0.023 | [16] 0.11 | [17] -0.085 | [18] -0.055 | [19] 0.012 | [20] 0.005

Quoted at random: 2 entries already listed.
DNAJC5 (UniProt Q9H3Z4)
inactive: [1] -0.021 | [2] 0.075 | [3] 0.007 | [5] -0.041 | [6] 0.161 | [7] -0.054 | [8] 0.023 | [9] -0.144 | [11] -0.136 | [12] -0.043 | [13] -0.002 | [14] 0.008 | [15] -0.029 | [16] -0.05 | [17] 0.043 | [18] -0.045 | [19] 0.062 | [20] 0.024
active: [4] -0.377 | [10] 0.334

DMTF1 (UniProt Q9Y222)
inactive: [1] -0.118 | [2] -0.052 | [3] 0.012 | [4] -0.044 | [5] 0.134 | [6] 0.092 | [7] -0.021 | [8] 0.07 | [9] 0.036 | [10] 0.132 | [11] 0.049 | [12] 0.028 | [13] 0.04 | [14] 0.039 | [15] -0.061 | [16] -0.127 | [17] 0.055 | [18] 0.004 | [19] -0.006 | [20] 0.045

Next part.

DNAJC9 (UniProt Q8WXX5)
inactive: [1] 0.015 | [2] 0.001 | [3] 0.036 | [4] 0.037 | [5] -0.016 | [6] 0.007 | [7] -0.04 | [8] -0.006 | [9] 0.044 | [10] -0.108 | [11] 0.018 | [12] 0.007 | [13] 0.003 | [14] 0.008 | [15] -0.022 | [16] 0.057 | [17] 0.025 | [18] 0.016 | [19] -0.016 | [20] 0.009

DNAJC12 (UniProt Q9UKB3)
inactive: [1] 0.05 | [2] 0.002 | [3] 0.025 | [4] -0.026 | [5] -0.016 | [6] 0.145 | [7] 0.058 | [8] 0.034 | [9] -0.002 | [10] -0.018 | [11] -0.048 | [12] 0.029 | [13] 0.031 | [14] -0.018 | [15] 0 | [16] -0.007 | [17] -0.066 | [18] -0.034 | [19] 0.008 | [20] -0.001

Reference: the supplement of paper PMC10849652
